Laboratory results from paper PMC10450199.
Where a chain is given by its changes, count along the chain named. Results are given in words; binding and its absence hold for the method and conditions named. In cells and extracts the contact can be indirect. Some results given as binding are weak or reduced against the parent protein; the word gives no strength. Sequences can lack the tags named with a protein.

Chains of the proteins cited; added tags and fusions are not shown.
UniProt Q03164: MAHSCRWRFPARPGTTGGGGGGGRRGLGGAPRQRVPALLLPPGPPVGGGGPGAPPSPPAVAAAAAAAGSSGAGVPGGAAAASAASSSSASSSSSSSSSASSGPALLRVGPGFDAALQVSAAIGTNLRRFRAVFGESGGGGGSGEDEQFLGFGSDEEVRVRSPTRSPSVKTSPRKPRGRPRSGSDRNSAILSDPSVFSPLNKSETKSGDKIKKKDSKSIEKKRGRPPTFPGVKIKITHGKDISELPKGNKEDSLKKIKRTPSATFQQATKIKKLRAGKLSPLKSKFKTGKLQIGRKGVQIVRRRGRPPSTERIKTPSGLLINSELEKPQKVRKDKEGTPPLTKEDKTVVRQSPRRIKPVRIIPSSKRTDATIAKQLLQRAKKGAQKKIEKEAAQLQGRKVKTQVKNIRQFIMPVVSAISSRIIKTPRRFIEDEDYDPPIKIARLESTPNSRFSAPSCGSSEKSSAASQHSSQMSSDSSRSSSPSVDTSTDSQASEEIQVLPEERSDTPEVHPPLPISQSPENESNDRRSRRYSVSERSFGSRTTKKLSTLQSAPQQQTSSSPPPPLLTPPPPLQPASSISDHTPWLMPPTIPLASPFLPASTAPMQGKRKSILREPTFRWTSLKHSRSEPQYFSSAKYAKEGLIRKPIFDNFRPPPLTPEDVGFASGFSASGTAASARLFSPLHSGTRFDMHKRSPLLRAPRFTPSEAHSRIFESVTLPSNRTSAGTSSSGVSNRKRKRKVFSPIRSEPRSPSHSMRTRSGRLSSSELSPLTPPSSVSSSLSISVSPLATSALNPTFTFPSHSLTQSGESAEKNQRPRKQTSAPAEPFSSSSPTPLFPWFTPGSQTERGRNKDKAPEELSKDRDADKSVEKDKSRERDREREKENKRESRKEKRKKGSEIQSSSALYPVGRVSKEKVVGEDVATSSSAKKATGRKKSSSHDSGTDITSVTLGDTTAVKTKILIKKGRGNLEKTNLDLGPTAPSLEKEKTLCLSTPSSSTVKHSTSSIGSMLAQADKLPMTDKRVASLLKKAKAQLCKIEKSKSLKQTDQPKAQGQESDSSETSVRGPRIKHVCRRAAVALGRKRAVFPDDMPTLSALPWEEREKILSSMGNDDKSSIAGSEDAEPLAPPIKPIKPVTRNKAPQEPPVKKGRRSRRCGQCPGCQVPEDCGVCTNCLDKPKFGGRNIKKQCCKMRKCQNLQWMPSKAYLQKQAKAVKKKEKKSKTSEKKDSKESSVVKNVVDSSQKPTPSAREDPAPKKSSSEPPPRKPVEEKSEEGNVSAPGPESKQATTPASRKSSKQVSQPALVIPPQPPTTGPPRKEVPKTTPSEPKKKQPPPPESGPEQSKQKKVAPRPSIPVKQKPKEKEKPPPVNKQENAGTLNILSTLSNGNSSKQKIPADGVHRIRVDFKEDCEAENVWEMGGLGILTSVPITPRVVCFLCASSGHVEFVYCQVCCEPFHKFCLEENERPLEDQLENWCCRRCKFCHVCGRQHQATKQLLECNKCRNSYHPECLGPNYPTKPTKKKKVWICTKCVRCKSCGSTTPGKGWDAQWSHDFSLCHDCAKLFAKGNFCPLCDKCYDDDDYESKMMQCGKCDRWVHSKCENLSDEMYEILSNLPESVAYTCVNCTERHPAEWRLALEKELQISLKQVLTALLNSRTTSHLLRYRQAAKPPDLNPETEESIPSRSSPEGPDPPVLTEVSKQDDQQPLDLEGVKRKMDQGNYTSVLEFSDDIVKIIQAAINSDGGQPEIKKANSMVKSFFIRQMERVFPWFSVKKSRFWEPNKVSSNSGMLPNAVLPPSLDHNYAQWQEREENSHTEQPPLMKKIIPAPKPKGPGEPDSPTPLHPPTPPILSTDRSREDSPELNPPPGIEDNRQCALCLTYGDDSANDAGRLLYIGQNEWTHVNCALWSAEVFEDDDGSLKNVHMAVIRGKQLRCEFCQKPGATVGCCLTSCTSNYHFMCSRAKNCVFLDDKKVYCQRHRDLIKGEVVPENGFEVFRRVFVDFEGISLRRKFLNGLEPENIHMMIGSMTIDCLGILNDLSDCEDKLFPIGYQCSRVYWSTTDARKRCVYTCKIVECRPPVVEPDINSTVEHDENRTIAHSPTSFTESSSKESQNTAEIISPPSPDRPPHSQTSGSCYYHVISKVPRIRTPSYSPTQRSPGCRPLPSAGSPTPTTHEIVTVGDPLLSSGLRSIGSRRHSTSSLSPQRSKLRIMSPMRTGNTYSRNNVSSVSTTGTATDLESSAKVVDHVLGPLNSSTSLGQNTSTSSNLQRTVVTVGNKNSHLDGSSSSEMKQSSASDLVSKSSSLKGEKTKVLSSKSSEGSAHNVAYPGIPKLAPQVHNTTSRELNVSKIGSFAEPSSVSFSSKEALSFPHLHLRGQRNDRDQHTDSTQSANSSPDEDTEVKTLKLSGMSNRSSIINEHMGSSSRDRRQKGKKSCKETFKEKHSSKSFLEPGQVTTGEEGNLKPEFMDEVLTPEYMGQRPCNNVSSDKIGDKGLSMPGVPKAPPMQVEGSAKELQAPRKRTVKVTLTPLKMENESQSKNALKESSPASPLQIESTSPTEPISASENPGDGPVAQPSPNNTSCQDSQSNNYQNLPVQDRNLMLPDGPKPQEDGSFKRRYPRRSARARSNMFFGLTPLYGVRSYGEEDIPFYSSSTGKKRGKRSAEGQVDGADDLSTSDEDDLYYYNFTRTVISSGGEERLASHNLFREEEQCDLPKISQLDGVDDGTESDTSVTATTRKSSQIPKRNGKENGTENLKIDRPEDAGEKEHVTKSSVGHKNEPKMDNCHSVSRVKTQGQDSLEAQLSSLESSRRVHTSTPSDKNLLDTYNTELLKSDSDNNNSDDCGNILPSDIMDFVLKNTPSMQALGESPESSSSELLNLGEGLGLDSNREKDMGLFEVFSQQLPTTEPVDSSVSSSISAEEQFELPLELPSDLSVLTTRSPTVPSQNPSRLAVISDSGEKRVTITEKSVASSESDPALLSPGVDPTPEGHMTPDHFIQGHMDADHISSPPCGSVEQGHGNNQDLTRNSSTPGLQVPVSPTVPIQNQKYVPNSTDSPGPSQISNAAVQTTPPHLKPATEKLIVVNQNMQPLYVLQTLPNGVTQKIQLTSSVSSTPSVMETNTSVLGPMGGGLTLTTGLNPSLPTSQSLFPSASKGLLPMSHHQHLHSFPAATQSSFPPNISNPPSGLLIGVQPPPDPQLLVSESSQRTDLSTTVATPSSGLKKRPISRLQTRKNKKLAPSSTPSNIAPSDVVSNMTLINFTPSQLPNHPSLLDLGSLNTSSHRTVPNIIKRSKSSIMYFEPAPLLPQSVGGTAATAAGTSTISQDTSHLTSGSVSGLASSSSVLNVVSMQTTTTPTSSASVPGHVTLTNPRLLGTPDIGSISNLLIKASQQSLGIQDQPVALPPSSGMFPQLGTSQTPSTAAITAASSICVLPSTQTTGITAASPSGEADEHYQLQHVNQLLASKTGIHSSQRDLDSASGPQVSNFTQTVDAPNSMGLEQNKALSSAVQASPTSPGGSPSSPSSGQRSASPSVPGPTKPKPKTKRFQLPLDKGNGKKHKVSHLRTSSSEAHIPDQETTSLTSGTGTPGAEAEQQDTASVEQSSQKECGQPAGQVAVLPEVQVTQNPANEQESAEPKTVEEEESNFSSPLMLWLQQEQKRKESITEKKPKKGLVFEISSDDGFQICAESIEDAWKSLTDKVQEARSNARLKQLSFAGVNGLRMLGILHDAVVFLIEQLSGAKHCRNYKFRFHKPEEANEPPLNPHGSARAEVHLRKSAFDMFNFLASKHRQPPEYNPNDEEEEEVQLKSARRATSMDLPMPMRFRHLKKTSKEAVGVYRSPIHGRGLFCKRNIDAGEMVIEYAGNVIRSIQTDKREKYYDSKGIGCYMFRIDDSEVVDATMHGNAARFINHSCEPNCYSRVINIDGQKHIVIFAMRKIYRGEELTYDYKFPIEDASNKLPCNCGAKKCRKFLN
UniProt O75475: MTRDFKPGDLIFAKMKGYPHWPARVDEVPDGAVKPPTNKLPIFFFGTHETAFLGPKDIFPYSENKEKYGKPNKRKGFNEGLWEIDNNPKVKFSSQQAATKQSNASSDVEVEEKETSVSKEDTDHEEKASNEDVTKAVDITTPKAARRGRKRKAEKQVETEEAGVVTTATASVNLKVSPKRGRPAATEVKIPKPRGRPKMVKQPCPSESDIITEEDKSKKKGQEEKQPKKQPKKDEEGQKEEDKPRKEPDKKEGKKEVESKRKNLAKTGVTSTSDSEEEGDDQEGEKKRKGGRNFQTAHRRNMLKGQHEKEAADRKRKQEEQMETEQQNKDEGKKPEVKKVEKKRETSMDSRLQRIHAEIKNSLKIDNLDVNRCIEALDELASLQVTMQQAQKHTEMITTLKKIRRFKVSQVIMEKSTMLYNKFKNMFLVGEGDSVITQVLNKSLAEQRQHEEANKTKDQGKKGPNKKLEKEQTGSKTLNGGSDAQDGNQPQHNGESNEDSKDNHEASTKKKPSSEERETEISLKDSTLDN

Columns and labels:
WT Menin-Flag = target: T1, WT Menin-Flag (UniProt O00255); test: co-IP; MEN1-KO NCI-H460 cells infected with vector, WT-Menin or Mut-Menin M278W lentivirus; NP-40 lysis buffer, 1 mg protein; IP with 3x Flag-menin or IgG antibodies overnight at 4 C, protein A/G magnetic beads; immunoblot for menin, MLL1 and LEDGF
T1 sequence: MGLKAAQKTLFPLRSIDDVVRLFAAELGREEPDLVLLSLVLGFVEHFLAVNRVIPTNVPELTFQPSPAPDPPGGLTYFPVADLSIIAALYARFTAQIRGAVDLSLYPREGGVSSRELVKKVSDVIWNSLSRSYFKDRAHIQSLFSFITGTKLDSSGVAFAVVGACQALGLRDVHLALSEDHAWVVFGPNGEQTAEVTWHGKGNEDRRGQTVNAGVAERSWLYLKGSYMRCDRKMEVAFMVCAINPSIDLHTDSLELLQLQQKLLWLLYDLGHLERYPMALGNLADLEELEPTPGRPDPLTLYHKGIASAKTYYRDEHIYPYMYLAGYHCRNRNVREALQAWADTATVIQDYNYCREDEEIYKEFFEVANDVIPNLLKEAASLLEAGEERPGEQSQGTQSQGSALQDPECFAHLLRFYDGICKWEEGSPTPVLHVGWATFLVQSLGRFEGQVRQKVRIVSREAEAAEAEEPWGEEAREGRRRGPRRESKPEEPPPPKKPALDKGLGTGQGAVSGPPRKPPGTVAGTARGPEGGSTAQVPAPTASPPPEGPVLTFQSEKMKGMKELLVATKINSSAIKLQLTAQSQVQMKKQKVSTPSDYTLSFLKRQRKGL

[1] = target: T2, mutant (Mut) Menin-Flag M278W (UniProt O00255); test: as above
T2 sequence: T1 sequence with M278W

Substance | binding (WT Menin-Flag) | binding [1]
mixed lineage leukemia protein 1 (from UniProt Q03164 1-3969) | binds | no binding
lens epithelium-derived growth factor (from UniProt O75475 1-530) | binds | binds
